Results from PubChem BioAssay AID1487 (National Center for Advancing Translational Sciences (NCATS), 2009).
This is one part of the list. The main result of the screen is listed elsewhere. These columns were measured beside it and carry no call. Most of these compounds were active or inconclusive in the main read-out, so they are no random draw. The note in brackets gives the kind of curve behind each potency; many fits are weak.

Test: qHTS Assay for Modulators of Lamin A Splicing
Settings: HeLa LMNA splicing GFP/RFP minigene ratio, 48 h
Method in brief: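 Read-out is the ratio of GFP to DsRed2 object intensity, acquired by 488 nm laser-scanning cytometry on HeLa lamin A-EGFP minigene reporter cells. Compound incubation 48 hrs at 37 °C in Opti-MEM with 2% FBS; DMSO 0.5% final.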

[1] = measured here: RFP viability control channel
[2] = measured here: GFP splicing reporter channel

With `CC1=NN(c2ccc(Cl)cc2)C(=O)C1C(c1cccc(O)c1)c1c(C)[nH]n(-c2ccc(Cl)cc2)c1=O` (configuration not stated) as the compound, how does the AC50 [1] read?
The AC50 was 17.8 µM [rising, single point].

Which AC50 [1] does the source give for `CS(=O)(=O)N(CC(=O)Nc1ccccc1Sc1ccccc1)c1cccc(Br)c1` here?
The AC50 was 22.4 µM [rising, single point].

What does the source list for `Cc1cccc(NC(=O)Nc2ccc(Oc3c(F)c(F)c(F)c(F)c3F)cc2)c1`?
AC50 [2]: 17.8 µM [rising, partial curve]; AC50 [1]: 14.1 µM [rising, partial curve]

With `C=CCn1c(SCC(=O)N2CCOCC2)nc2scc(-c3ccco3)c2c1=O` as the compound, how does the AC50 [2] read?
The AC50 was 7.94 µM [rising, partial curve].

For `CC1CC1c1ccc(/C=C(\C#N)C(=O)Nc2cccc(Cl)c2Cl)o1` (configuration not stated), which AC50 [1] is on record?
Its AC50 is 12.6 µM [rising, partial curve].

For `Cc1ccc2c(C)nc(Nc3nc(CSc4nnc(C)s4)cc(=O)[nH]3)nc2c1`, which AC50 [2] is on record?
The AC50 was 35.5 µM [falling, single point].

With `O=C(Nc1ccccc1N1CCN(C(=O)c2ccccc2)CC1)c1ccc2c(c1)OCO2` as the compound, how does the AC50 [1] read?
Its AC50 is 2 µM [rising, partial curve].

With `CCOc1ccc(CC(=O)Nc2ccc3c(c2)N(C)C(=O)c2ccccc2S3)cc1OCC` as the compound, how does the AC50 [2] read?
Its AC50 is 3.55 µM [falling, full curve].

For `COC(=O)c1oc(-c2ccc(Cl)cc2)nc1C`, which AC50 [1] is on record?
Its AC50 is 0.0891 µM [rising, full curve, poor fit].

Which AC50 [1] does the source give for `COc1ccc(CNc2nc(S(=O)(=O)c3ccccc3)c(Cl)s2)cc1OC` here?
Its AC50 is 8.91 µM [rising, partial curve].

Which AC50 [2] does the source give for `CCCCN(CC)S(=O)(=O)c1ccc2c(c1)CCCN2C(C)=O` here?
The AC50 was 20 µM [rising, single point].

What about the AC50 [1] of the same compound?
Its AC50 is 35.5 µM [rising, single point].

For `COCCNC(=O)c1c(N)n(-c2ccccc2)c2nc3ccccc3nc12`, which AC50 [2] is on record?
Its AC50 is 6.31 µM [falling, single point].

And the AC50 [1]?
The AC50 was 5.62 µM [falling, single point].

For `Cc1ccc(C(=O)c2coc3cc([N+](=O)[O-])c(O)c([N+](=O)[O-])c23)cc1`, which AC50 [1] is on record?
The AC50 was 12.6 µM [rising, partial curve].

With `CCOc1ccccc1C(=O)NCC(=O)O` as the compound, how does the AC50 [1] read?
Its AC50 is 22.4 µM [falling, single point].

With `CCOC(=O)N1CCc2c(sc(NCc3sccc3C)c2C(=O)Nc2cc(OC)ccc2OC)C1` as the compound, how does the AC50 [2] read?
The AC50 was 15.8 µM [falling, partial curve, poor fit].

Which results are given for `Cc1c(C(=O)Nc2ccc(-c3nnc4n3CCCCC4)cc2)oc2c1ccc1ccccc12`?
AC50 [2]: 35.5 µM [falling, single point]; AC50 [1]: 35.5 µM [falling, single point]

With `Brc1ccc2c(c1)CNc1c(ncnc1N1CCOCC1)O2` as the compound, how does the AC50 [1] read?
Its AC50 is 28.2 µM [rising, partial curve].

With `CCC(=O)Nc1cccc(C(=O)/C=C/c2ccc(F)cc2)c1` as the compound, how does the AC50 [1] read?
Its AC50 is 35.5 µM [rising, single point].

With `COc1ccc(OC)c(/C=C/C(=O)c2ccc(Cl)cc2)c1` as the compound, how does the AC50 [2] read?
The AC50 was 17.8 µM [falling, partial curve].

And the AC50 [1]?
The AC50 was 22.4 µM [falling, partial curve].

Which AC50 [2] does the source give for `COc1ccc(OCC(=O)Nc2cccc3cccnc23)cc1` here?
Its AC50 is 12.6 µM [rising, partial curve, poor fit].

What about the AC50 [1] of the same compound?
The AC50 was 11.2 µM [rising, partial curve, poor fit].

Which AC50 [2] does the source give for `CN(Cc1ccccc1)C(=O)c1ccc2c(c1)NC(=O)C(N1CCOCC1)S2` (configuration not stated) here?
Its AC50 is 1.78 µM [rising, partial curve].

With `O=[N+]([O-])c1ccc2nc(/C=C/c3ccc(Cl)cc3)[nH]c2c1` as the compound, how does the AC50 [1] read?
The AC50 was 5.62 µM [falling, partial curve, poor fit].

Which results are given for `CC1(C)Cc2c(C#N)c(NCCc3ccccc3)nc(-c3ccco3)c2CO1`?
AC50 [2]: 11.2 µM [rising, partial curve]; AC50 [1]: 8.91 µM [rising, partial curve]

For `Cc1cccc(N2CCN(C(=O)c3cc4c(=O)n(C)c5ccccc5c4n3C)CC2C)c1` (configuration not stated), which AC50 [1] is on record?
Its AC50 is 35.5 µM [rising, single point].

Which AC50 [1] does the source give for `COc1ccc(Oc2ccc(N/C=C3\CCCC3=O)cc2)cc1` here?
Its AC50 is 3.98 µM [rising, partial curve, poor fit].

Which AC50 [2] does the source give for `CCCCCCCCCCOC(=O)NC1CCS(=O)(=O)C1` (configuration not stated) here?
The AC50 was 0.708 µM [rising, full curve, poor fit].

With `CC(NC(=O)c1ccccc1)C(=O)N/N=C/c1ccc(O)cc1` (configuration not stated) as the compound, how does the AC50 [1] read?
Its AC50 is 0.398 µM [falling, full curve, poor fit].

Which AC50 [2] does the source give for `Oc1c(C(c2ccccc2F)N2CCOCC2)sc2nc(-c3ccco3)nn12` (configuration not stated) here?
Its AC50 is 35.5 µM [rising, single point].

For `CC(=O)c1cc(C(=O)c2ccccc2)sc1Nc1ccccc1`, which AC50 [2] is on record?
The AC50 was 35.5 µM [rising, single point].

What about the AC50 [1] of the same compound?
Its AC50 is 31.6 µM [rising, single point].

With `CCOC(=O)C1=C(C)OC(N)=C(C#N)C1c1cc2c(cc1[N+](=O)[O-])OCO2` (configuration not stated) as the compound, how does the AC50 [2] read?
The AC50 was 0.0891 µM [rising, full curve, poor fit].

What does the source list for `Cc1ccccc1-n1cc(C(=O)c2cc(Cl)ccc2O)cc(C#N)c1=O`?
AC50 [2]: 10 µM [rising, partial curve]; AC50 [1]: 12.6 µM [rising, partial curve]

Which results are given for `CCOc1ccc(Br)cc1S(=O)(=O)Nc1ccc(NC(=O)c2ccccc2F)cc1`?
AC50 [2]: 20 µM [rising, partial curve, poor fit]; AC50 [1]: 17.8 µM [rising, partial curve, poor fit]

Which AC50 [1] does the source give for `CC(NC(=O)CSc1n[nH]c(-c2ccccc2Cl)n1)c1nc2ccccc2n1C` (configuration not stated) here?
The AC50 was 5.62 µM [falling, partial curve].

Which AC50 [2] does the source give for `CCN(c1ccccc1)S(=O)(=O)c1ccc2[nH]cc(C(=O)NC3CCCCC3)c(=O)c2c1` here?
Its AC50 is 35.5 µM [falling, partial curve].

What about the AC50 [1] of the same compound?
The AC50 was 25.1 µM [falling, partial curve].

Which AC50 [2] does the source give for `CCOC(=O)c1[nH]c2ccc(OC)cc2c1NC(=S)N1CCN(c2cccc(C)c2C)CC1` here?
Its AC50 is 35.5 µM [falling, single point].

What about the AC50 [1] of the same compound?
The AC50 was 1.41 µM [rising, partial curve].

With `CCOC(=O)N1CCN(C(=O)CSc2nnc(-c3cccc(OC)c3)o2)CC1` as the compound, how does the AC50 [2] read?
The AC50 was 20 µM [rising, single point].

For `CC(=O)N(c1ccc(C)cc1)S(=O)(=O)c1ccc(Cl)cc1`, which AC50 [1] is on record?
Its AC50 is 25.1 µM [rising, single point].

With `CCOc1ccc(NC(=O)CN2CCN(Cc3ccccc3)S2(=O)=O)cc1` as the compound, how does the AC50 [1] read?
The AC50 was 31.6 µM [rising, partial curve, poor fit].

With `O=C(Nc1nc(-c2nc3ccccc3s2)cs1)c1ccc(S(=O)(=O)N2CCOCC2)cc1` as the compound, how does the AC50 [1] read?
Its AC50 is 1.41 µM [rising, partial curve].

With `CC(C)[C@H](Nc1ccc(S(=O)(=O)N2CCOCC2)cc1[N+](=O)[O-])C(=O)OCC(=O)N(C(C)C)C(C)C` as the compound, how does the AC50 [1] read?
Its AC50 is 31.6 µM [rising, single point].

For `N/C(=N\OC(=O)CC(c1ccccc1)c1ccccc1)c1cccnc1`, which AC50 [2] is on record?
The AC50 was 0.02 µM [rising, full curve, poor fit].

With `CN(CC(=O)Nc1cccc(Cl)c1)S(=O)(=O)c1ccc2[nH]c3c(c2c1)CCCC3` as the compound, how does the AC50 [1] read?
Its AC50 is 35.5 µM [rising, single point].

For `COc1cccc(-c2nn3c(-c4ccccn4)nnc3s2)c1`, which AC50 [1] is on record?
Its AC50 is 22.4 µM [rising, single point].

For `COc1ccc(CNC(=O)Cn2c(=O)oc3cc(S(=O)(=O)N4CCCCCC4)ccc32)cc1`, which AC50 [1] is on record?
Its AC50 is 0.00447 µM [falling, full curve, poor fit].

For `Cc1cc(C)c2c(c1)-c1cc(C)nn1C(c1ccc3c(c1)OCO3)N2` (configuration not stated), which AC50 [1] is on record?
The AC50 was 14.1 µM [rising, partial curve, poor fit].

With `Cc1cn([C@H]2C=C[C@@H](CO)O2)c(=O)[nH]c1=O` as the compound, how does the AC50 [1] read?
The AC50 was 35.5 µM [rising, partial curve, poor fit].

With `CC(C)N(C(=O)CSc1nnnn1C1CCCC1)C(C)C` as the compound, how does the AC50 [1] read?
Its AC50 is 5.62 µM [rising, single point].

For `CCCNC(=O)Cc1ncn[nH]1`, which AC50 [1] is on record?
The AC50 was 3.16 µM [falling, partial curve, poor fit].

Which AC50 [2] does the source give for `CC(=O)c1cccc(NC(=O)CN(c2ccc(C)cc2)S(=O)(=O)c2cccc3nonc23)c1` here?
The AC50 was 35.5 µM [rising, single point].

What about the AC50 [1] of the same compound?
The AC50 was 35.5 µM [rising, single point].

For `O=C(c1cccc2ccccc12)N1CCN(c2ccc([N+](=O)[O-])c(NCc3ccco3)c2)CC1`, which AC50 [1] is on record?
Its AC50 is 1 µM [rising, full curve, poor fit].

For `O=C(Cc1ccc(Cl)cc1)Nc1ccccc1Sc1ccccc1`, which AC50 [2] is on record?
The AC50 was 25.1 µM [rising, single point].

What about the AC50 [1] of the same compound?
The AC50 was 31.6 µM [rising, single point].

For `Cc1ccc2c(C)c(C(=O)Nc3ccc(S(N)(=O)=O)cc3)oc2c1C`, which AC50 [2] is on record?
Its AC50 is 6.31 µM [falling, partial curve, poor fit].

For `CCc1cccc(N(C)C(N)=Nc2cccc3ccccc23)c1`, which AC50 [2] is on record?
The AC50 was 12.6 µM [falling, partial curve, poor fit].

And the AC50 [1]?
The AC50 was 0.00562 µM [falling, full curve, poor fit].

For `CCCCn1ccnc1C(=O)c1cccc(S(=O)(=O)N2CC(C)CC(C)C2)c1` (configuration not stated), which AC50 [2] is on record?
Its AC50 is 1.26 µM [rising, partial curve, poor fit].

What about the AC50 [1] of the same compound?
The AC50 was 35.5 µM [rising, single point].

Which AC50 [1] does the source give for `CCOc1ccccc1C(=O)N1CCN(c2cccc(Cl)c2)CC1` here?
The AC50 was 0.891 µM [rising, full curve].

With `CS(=O)(=O)N1CCN(C(=O)NC23CC4CC(CC(C4)C2)C3)CC1` as the compound, how does the AC50 [1] read?
The AC50 was 20 µM [rising, partial curve, poor fit].
